# Assay results published in patent publication US20080220031A1, “Dermocosmetic Preparations” (BASF Aktiengesellschaft, priority 2005, published 2008).
# At least one structure is not confirmed: it was looked up by name or label, or the drawing left a doubt.
# Assay: Oxidation test squalene test (Raman, azo initiator V65)
# Conditions: 2500 ppm test substance, azo initiator V65, 30 days at 40° C., squalene content by Raman spectrum
# Description: 3 ml of a 2% strength solution of the azo initiator V65 (from Wako) are introduced together with 2500 ppm of test substance (based on the squalene solution) into 12×100 […] Fiolax test tubes and thoroughly mixed using a laboratory shaker. The samples are then stored open in a through-circulation drying oven for 30 days at 40° C. At intervals of 7 days, the squalene content of the samples is determined by means of the Raman spectrum and chemometric evaluation. The datapoints are documented in an XY graph and the efficiency of the test substance is determined from the slope of the decomposition curves in comparison with a reference sample without test substance. The slope of the reference sample divided by the slope of the test substance sample gives the factor Q_Raman.
smiles,measurement,value
C[C@@H]1O[C@@H](OC[C@H]2O[C@@H](Oc3c(-c4ccc(O)c(O)c4)oc4cc(O)cc(O)c4c3=O)[C@H](O)[C@@H](O)[C@@H]2O)[C@H](O)[C@H](O)[C@H]1O [Rutin],Qraman (slope of reference sample divided by slope of test substance sample),1.2
